Measurements from the supplement of paper PMC10849652.
The list shows a part of the results.

By UniProt entry, the sequences of proteins in these tests, tags left out. Where a name states a change or a piece, a line headed by the entry shows the natural chain unless it says otherwise.
UniProt Q13564: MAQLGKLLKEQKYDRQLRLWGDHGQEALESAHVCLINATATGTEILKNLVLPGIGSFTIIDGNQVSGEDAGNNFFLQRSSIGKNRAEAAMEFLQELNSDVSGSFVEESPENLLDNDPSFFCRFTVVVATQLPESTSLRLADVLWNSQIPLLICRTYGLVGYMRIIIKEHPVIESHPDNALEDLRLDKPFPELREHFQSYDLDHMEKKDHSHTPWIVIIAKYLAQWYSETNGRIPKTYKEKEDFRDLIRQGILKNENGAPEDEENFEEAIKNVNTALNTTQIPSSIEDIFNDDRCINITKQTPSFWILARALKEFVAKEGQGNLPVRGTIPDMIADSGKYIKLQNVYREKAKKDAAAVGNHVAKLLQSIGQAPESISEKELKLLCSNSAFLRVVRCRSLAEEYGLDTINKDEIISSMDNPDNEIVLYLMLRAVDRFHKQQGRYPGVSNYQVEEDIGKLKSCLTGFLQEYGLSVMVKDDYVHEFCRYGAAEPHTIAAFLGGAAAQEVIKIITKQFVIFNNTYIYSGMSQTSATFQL
UniProt P56181: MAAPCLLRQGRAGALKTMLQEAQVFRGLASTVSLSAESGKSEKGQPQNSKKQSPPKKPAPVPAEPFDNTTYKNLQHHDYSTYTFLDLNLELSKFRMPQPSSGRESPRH
UniProt Q6NZ67, whole entry, looked up: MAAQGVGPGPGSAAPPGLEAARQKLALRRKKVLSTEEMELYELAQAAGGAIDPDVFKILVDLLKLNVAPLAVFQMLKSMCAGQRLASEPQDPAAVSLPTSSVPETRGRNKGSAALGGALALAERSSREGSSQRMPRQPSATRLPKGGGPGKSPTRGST
UniProt O43676, whole entry, looked up: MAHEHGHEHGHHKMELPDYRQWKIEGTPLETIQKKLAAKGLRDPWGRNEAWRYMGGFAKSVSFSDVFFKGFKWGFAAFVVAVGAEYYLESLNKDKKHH
UniProt O43678, whole entry, looked up: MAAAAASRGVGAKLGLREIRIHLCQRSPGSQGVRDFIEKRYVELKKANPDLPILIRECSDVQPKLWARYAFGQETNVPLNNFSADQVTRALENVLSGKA
UniProt Q9BSU3: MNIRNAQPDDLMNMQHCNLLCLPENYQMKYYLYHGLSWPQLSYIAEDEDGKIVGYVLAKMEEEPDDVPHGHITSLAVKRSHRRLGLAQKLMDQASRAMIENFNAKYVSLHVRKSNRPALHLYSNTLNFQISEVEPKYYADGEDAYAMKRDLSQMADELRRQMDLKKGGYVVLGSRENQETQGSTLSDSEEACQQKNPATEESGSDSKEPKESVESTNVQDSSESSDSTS
NA, A0A494C071, UniProt A0A494C071, whole entry, looked up: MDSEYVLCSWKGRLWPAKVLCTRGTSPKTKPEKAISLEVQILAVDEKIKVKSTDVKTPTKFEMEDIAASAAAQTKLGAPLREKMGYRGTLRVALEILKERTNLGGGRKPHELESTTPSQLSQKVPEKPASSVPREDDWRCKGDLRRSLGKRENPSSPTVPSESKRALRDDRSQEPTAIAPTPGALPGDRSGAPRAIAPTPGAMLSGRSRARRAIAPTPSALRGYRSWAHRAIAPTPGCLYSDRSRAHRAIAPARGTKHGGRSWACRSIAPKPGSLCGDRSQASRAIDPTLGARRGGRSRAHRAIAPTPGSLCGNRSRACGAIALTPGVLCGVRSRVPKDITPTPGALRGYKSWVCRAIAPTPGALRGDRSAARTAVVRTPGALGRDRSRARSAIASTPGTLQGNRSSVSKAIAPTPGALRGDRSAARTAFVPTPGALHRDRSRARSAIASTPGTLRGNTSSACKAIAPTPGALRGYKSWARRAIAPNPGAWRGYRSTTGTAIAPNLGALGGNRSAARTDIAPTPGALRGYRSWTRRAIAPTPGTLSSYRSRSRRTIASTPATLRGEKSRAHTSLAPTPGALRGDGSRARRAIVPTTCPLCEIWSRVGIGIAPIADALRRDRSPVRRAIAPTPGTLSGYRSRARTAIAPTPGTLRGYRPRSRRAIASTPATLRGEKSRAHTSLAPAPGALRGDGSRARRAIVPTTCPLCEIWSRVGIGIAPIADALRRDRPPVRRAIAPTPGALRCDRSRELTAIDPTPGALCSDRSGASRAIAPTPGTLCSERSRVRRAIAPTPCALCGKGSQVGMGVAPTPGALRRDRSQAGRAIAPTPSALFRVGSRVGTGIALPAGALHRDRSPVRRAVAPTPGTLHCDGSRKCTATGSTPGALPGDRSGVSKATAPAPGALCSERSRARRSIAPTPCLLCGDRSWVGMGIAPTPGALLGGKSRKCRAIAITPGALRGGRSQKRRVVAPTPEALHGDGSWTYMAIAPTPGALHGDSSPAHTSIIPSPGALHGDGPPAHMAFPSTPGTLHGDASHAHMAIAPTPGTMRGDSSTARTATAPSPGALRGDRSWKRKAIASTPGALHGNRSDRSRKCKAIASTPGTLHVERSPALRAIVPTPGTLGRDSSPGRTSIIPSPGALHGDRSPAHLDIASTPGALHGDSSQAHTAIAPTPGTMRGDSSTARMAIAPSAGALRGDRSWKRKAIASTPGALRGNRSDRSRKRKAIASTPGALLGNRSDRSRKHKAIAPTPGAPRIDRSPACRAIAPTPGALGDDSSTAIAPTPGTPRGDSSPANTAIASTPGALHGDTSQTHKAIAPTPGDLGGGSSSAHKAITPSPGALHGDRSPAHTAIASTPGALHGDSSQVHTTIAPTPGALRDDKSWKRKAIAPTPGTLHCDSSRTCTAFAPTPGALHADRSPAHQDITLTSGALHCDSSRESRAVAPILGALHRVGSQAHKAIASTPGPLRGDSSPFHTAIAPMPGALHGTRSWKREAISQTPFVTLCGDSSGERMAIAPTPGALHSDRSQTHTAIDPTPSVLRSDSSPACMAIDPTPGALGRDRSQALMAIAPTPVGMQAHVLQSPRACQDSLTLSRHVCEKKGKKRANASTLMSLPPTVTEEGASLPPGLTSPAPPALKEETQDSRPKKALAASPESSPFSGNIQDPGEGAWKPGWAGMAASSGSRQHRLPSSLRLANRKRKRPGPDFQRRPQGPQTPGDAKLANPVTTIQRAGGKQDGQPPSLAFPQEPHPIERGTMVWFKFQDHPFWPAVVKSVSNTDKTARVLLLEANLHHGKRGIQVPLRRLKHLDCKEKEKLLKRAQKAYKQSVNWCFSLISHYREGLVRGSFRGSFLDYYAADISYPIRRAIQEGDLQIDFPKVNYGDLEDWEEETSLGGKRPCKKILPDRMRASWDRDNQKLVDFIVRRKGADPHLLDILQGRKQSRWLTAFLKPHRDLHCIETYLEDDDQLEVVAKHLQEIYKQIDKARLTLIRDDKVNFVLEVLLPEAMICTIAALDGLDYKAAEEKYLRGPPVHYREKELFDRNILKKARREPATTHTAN
UniProt Q9NV92: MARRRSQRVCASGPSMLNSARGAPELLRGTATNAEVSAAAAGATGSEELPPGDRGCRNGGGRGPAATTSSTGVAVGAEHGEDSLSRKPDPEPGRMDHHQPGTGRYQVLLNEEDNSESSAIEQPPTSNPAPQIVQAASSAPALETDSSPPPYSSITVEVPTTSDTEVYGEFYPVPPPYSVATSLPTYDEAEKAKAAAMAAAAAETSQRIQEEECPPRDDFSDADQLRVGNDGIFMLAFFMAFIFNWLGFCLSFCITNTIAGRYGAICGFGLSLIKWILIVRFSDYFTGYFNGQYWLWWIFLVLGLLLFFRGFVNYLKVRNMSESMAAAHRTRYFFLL
UniProt O43677, whole entry, looked up: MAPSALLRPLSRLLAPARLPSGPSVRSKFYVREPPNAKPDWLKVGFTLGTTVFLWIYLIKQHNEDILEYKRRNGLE
UniProt P49321, whole entry, looked up: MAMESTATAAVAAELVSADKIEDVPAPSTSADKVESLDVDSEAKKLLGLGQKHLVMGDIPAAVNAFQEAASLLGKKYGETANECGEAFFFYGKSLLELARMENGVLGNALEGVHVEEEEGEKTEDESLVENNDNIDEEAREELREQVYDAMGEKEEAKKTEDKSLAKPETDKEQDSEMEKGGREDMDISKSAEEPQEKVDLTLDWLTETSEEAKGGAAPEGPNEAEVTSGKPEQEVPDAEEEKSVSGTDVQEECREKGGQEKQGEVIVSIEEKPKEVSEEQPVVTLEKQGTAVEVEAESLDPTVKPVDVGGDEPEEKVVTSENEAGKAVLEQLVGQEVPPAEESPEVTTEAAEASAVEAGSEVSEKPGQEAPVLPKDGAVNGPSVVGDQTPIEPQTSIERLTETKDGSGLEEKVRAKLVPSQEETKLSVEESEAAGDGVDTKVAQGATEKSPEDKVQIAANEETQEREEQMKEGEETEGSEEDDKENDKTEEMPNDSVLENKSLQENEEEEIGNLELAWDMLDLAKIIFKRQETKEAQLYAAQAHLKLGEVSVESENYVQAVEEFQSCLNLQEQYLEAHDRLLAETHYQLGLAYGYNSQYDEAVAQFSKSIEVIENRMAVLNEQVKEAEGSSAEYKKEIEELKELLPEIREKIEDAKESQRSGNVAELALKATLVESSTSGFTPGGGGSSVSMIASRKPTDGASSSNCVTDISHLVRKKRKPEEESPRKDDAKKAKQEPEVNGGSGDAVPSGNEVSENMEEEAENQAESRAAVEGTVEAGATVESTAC
UniProt Q02083: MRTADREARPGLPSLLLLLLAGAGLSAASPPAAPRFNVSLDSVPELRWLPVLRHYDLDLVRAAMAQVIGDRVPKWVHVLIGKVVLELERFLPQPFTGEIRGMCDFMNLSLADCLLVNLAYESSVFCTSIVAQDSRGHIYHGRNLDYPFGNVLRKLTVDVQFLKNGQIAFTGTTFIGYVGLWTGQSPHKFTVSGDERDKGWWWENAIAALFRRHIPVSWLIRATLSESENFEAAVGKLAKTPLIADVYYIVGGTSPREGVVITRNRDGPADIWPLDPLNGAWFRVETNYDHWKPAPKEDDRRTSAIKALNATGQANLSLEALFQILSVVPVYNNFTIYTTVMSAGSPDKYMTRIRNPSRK
UniProt B2RBV5: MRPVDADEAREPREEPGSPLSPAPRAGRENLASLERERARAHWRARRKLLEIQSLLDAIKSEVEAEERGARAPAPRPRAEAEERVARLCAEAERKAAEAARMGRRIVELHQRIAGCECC
UniProt P52849: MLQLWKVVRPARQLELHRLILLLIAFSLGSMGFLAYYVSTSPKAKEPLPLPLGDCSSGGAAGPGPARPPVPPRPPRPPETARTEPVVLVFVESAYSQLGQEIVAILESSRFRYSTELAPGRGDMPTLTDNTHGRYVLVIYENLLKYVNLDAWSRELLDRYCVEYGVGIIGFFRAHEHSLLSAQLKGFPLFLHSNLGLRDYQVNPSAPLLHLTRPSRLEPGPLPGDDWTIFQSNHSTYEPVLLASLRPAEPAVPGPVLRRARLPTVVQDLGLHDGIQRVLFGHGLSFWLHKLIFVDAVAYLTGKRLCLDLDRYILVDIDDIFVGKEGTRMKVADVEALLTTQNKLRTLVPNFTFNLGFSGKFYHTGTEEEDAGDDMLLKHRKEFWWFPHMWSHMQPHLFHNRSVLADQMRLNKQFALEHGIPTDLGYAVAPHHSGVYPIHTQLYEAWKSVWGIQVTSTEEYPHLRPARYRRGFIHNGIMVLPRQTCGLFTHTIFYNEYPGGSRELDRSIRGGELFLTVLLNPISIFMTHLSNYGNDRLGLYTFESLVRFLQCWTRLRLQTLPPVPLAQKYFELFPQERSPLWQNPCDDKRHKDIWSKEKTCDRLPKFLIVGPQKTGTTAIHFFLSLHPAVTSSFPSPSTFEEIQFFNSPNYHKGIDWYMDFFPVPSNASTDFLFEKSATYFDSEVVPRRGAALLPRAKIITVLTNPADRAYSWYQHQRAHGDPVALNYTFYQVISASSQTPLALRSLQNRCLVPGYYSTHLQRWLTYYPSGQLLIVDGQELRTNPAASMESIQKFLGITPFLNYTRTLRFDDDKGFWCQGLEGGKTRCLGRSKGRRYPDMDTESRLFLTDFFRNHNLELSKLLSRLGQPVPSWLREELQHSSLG
NBDY, A0A0U1RRE5, UniProt A0A0U1RRE5, whole entry, looked up: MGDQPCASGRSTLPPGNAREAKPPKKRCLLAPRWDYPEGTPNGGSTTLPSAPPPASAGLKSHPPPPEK
UniProt Q9UK23: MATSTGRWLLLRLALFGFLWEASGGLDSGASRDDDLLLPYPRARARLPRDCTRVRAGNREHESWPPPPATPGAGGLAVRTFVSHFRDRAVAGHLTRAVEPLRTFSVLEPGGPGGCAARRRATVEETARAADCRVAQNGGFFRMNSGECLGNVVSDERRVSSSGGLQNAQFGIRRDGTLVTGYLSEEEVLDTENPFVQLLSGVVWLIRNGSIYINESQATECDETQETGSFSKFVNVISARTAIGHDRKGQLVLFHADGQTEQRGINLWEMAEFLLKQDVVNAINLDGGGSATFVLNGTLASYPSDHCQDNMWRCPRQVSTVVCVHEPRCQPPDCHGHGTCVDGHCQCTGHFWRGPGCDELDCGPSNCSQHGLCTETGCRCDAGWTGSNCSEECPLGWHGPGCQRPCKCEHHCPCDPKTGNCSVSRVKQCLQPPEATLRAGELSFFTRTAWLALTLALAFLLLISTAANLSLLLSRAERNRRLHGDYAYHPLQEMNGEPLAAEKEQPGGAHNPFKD
UniProt Q8N6N6: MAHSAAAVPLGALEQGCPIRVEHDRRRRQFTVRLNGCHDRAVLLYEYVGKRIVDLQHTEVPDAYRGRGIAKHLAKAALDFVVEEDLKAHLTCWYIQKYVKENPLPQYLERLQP

Assays:
Assay in all cases: log2 fold change, soluble protein after heating vs DMSO (PISA); higher = thermal stabilisation; K562 cells, 10 uM, 30 min; active = over 0.2 and 3.5 SD of the protein, either way, in both replicates (recomputed)
[1] = compound: NC(=O)Nc1cc(-c2cccc(F)c2)sc1C(=O)N[C@H]1CCCNC1
In short: (§1)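 Values are thermal stability changes relative to control samples and are taken from duplicates. They are stated as log2 fold changes. Before quantification by TMTpro 16plex LC-MS/MS with equalised channel sums, K562 cells at 2×10^6 cells/mL were treated with 10 μM compound for 30 min, heated in aliquots for 3 min across 48°C-58°C, pooled, extracted in PBS with 0.5% NP-40 at 4°C, and centrifuged at 21,000xg for 90 min to give the soluble supernatant.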

[2] = compound: NC(=O)c1cnc(N[C@@H]2CCCC[C@@H]2N)nc1Nc1cccc(-n2nccn2)c1
In short: as §1

[3] = compound: NC1(c2ccc(-c3nc4ccn5c(=O)[nH]nc5c4cc3-c3ccccc3)cc2)CCC1
In short: as §1

[4] = compound: NCC(=O)Nc1ccc(-n2nc(C(F)(F)F)cc2-c2ccc3c(ccc4ccccc43)c2)cc1
In short: as §1

[5] = compound: Nc1ccccc1NC(=O)c1ccc(CNC(=O)OCc2cccnc2)cc1 [entinostat]
In short: as §1

[6] = compound: O=C(CCCCCCC(=O)Nc1ccccc1)NO [vorinostat]
In short: as §1

[7] = compound: O=C(CCCCCCNC(=O)c1cnc(N(c2ccccc2)c2ccccc2Cl)nc1)NO [citarinostat]
In short: as §1

[8] = compound: O=C(O)c1ccc2c(c1)nc(Nc1cccc(Cl)c1)c1ccncc12 [silmitasertib]
In short: as §1

[9] = compound: O=C1NC(=O)C(c2cnc3ccccn23)=C1c1cn2c3c(cc(F)cc13)CN(C(=O)N1CCCCC1)CC2
In short: as §1

[10] = compound: c1cc(OCCN2CCCCC2)cc(-c2n[nH]c3ccc(-c4nnc[nH]4)cc23)c1
In short: as §1

[11] = compound: c1cn2cc(-c3ccc4cn[nH]c4c3)nc(Nc3ccc(N4CCOCC4)cc3)c2n1 [entospletinib]
In short: as §1

Measured: log2 fold change

NAE1 (UniProt Q13564)
inactive: [1] -0.078 | [2] -0.019 | [3] -0.113 | [4] -0.004 | [5] 0.003 | [6] 0.049 | [7] 0.063 | [8] 0.001 | [9] -0.028 | [10] -0.064 | [11] 0.012

NCOA6 (UniProt Q14686)
inactive: [1] 0.121 | [2] -0.017 | [3] 0.126 | [4] -0.001 | [5] 0.015 | [6] -0.044 | [7] -0.069 | [8] -0.035 | [9] -0.106 | [10] -0.14 | [11] 0.027

MYO9B (UniProt Q13459)
inactive: [1] -0.043 | [2] -0.011 | [3] 0.001 | [4] -0.042 | [5] 0.018 | [6] -0.017 | [7] 0.038 | [8] 0.156 | [9] 0.162 | [10] -0.135 | [11] 0.085

NDC1 (UniProt Q9BTX1)
inactive: [1] -0.074 | [2] -0.026 | [3] -0.019 | [4] -0.079 | [5] 0.004 | [6] 0.021 | [7] -0.01 | [8] -0.015 | [9] -0.139 | [10] 0.003 | [11] 0.029

NDUFV3 isoform 2 (UniProt P56181)
inactive: [1] 0.01 | [2] 0.066 | [3] 0.007 | [4] 0.003 | [5] -0.053 | [6] -0.015 | [7] -0.044 | [8] 0.004 | [9] -0.002 | [10] -0.067 | [11] 0.042

NDST1 (UniProt P52848)
inactive: [1] -0.144 | [2] 0.026 | [3] 0.001 | [4] -0.04 | [5] 0.003 | [6] -0.18 | [7] -0.061 | [8] -0.022 | [9] -0.058 | [10] 0.128 | [11] 0.169

MZT2B (UniProt Q6NZ67)
inactive: [1] 0.076 | [2] -0.054 | [3] 0.018 | [4] 0.053 | [5] 0.027 | [6] 0.017 | [8] 0.028 | [9] -0.099

NDUFB3 (UniProt O43676)
inactive: [1] -0.02 | [2] -0.016 | [3] -0.037 | [4] -0.041 | [5] -0.034 | [6] -0.035 | [7] 0.038 | [8] 0.019 | [9] 0.001 | [10] -0.041 | [11] 0.049

NEDD8 (UniProt Q15843)
inactive: [1] -0.024 | [2] -0.071 | [3] -0.007 | [4] -0.08 | [5] 0.045 | [6] -0.201 | [7] 0.034 | [8] 0.003 | [9] -0.071 | [10] -0.095 | [11] 0.087

NDUFA11 (UniProt Q86Y39)
inactive: [1] -0.034 | [2] -0.003 | [3] -0.073 | [4] -0.057 | [5] -0.003 | [6] 0.046 | [7] 0.025 | [8] 0.006 | [9] 0.052 | [10] -0.075 | [11] -0.009

NDUFAB1 (UniProt O14561)
inactive: [1] 0.059 | [2] 0.229 | [3] 0.048 | [4] 0.092 | [5] 0.058 | [6] -0.083 | [7] -0.192 | [8] -0.097 | [9] -0.115 | [10] -0.228 | [11] 0.409

NA isoform 3 (UniProt Q4G0T1)
inactive: [1] -0.114 | [2] -0.207 | [3] 0.015 | [4] -0.02 | [5] 0.01 | [8] 0.037

NDUFA2 (UniProt O43678)
inactive: [1] -0.006 | [2] 0.032 | [3] -0.009 | [4] 0.016 | [5] 0.112 | [6] 0.031 | [7] -0.019 | [8] -0.124 | [9] -0.127 | [10] -0.005 | [11] 0.029

NEBL isoform 2 (UniProt O76041)
inactive: [1] -0.045 | [2] -0.039 | [3] 0.048 | [4] -0.006 | [5] -0.053 | [6] -0.068 | [7] 0.009 | [8] 0.015 | [9] -0.046 | [10] -0.052 | [11] 0.024

NAA11 (UniProt Q9BSU3)
active: [5] 0.375
inactive: [1] 0.139 | [2] -0.048 | [3] -0.072 | [4] 0.167 | [7] -0.05 | [8] -0.001 | [9] -0.064 | [10] -0.022

NCOA4 isoform 4 (UniProt Q13772)
inactive: [6] 0.342

NAMPT (UniProt C9JF35)
inactive: [1] -0.094 | [3] -0.2 | [5] -0.082 | [7] 0.033 | [8] 0.06 | [9] 0.081 | [10] -0.053 | [11] -0.142

NA (UniProt J3KR12)
inactive: [3] -0.292 | [8] -0.108 | [9] 0.427

NA, A0A2R8Y3M9
inactive: [1] -0.104 | [2] -0.17 | [5] -0.011 | [6] 0.372

NA, A0A494C071
inactive: [2] -0.484 | [3] -0.407 | [4] -0.153 | [6] 0 | [7] 0.023 | [8] 0.212 | [9] -0.022 | [10] -0.086

NCOA1 (UniProt Q15788)
inactive: [2] 0.001 | [3] -0.041 | [4] -0.155 | [7] -0.187 | [8] 0.054 | [9] -0.058 | [10] 0.038 | [11] -0.052

NDFIP2 (UniProt Q9NV92)
inactive: [1] -0.284 | [3] 0.101 | [5] -0.354 | [8] 0.049

NAA40 (UniProt Q86UY6)
inactive: [4] 0.004 | [6] -0.256 | [7] -0.151 | [9] 0.245 | [10] -0.058 | [11] 0.263

NCK2 (UniProt O43639)
inactive: [1] -0.188 | [2] -0.18 | [4] -0.178 | [5] 0.191 | [6] 0.105 | [7] 0.003 | [9] 0.068 | [10] -0.014 | [11] -0.196

NDUFC1 (UniProt O43677)
inactive: [2] -0.011 | [7] 0.001 | [9] -0.076 | [10] -0.047 | [11] -0.012

NA, A0A1W2PSA9
inactive: [2] 0.004 | [6] -0.364

MYSM1 (UniProt Q5VVJ2)
inactive: [1] -0.205 | [5] 0.237 | [7] 0.564 | [10] 0.174

NEB isoform 3 (UniProt P20929)
inactive: [2] -0.173 | [4] 0.019 | [6] 0 | [7] 0.123 | [9] 0.148 | [10] -0.001 | [11] -0.03

NASP isoform 2 (UniProt P49321)
inactive: [3] 0.24 | [8] -0.475

NAAA (UniProt Q02083)
inactive: [1] -0.041 | [3] -0.457 | [5] 0.088 | [6] -0.12 | [7] 0.233 | [8] -0.262 | [10] -0.218 | [11] -0.073

NBEAL2 (UniProt Q6ZNJ1)
inactive: [3] -0.003 | [6] 0.064 | [7] -0.15 | [8] -0.034 | [10] -0.006 | [11] -0.165

NCAPH2 isoform 4 (UniProt Q6IBW4)
inactive: [2] 0.099 | [3] 0.216 | [7] 0.118 | [8] 0.067 | [9] -0.074 | [10] -0.033 | [11] -0.019

NDRG2 (UniProt G3V392)
inactive: [1] 0.095 | [3] 0.129 | [5] -0.035 | [8] -0.056 | [9] -0.06

NAP1L4 (UniProt C9J6D1)
inactive: [1] 0.035 | [2] 0.078 | [5] 0.093

NCKIPSD (UniProt Q9NZQ3)
inactive: [2] 0.114 | [4] 0.02 | [6] -0.148

NDEL1 isoform 2 (UniProt Q9GZM8)
inactive: [2] -0.066 | [3] 0.039 | [4] 0.001 | [6] 0.071 | [7] -0.155 | [8] -0.104 | [9] -0.15 | [10] 0.19 | [11] -0.037

NEK1 isoform 3 (UniProt Q96PY6)
inactive: [2] -0.015 | [4] -0.171

NCKAP5L (UniProt Q9HCH0)
inactive: [3] 0.064 | [4] -0.028 | [8] -0.039

NDUFA7 (UniProt M0R0N0)
inactive: [1] -0.307 | [4] -0.344 | [5] -0.063

NAP1L1 (UniProt B7Z9C2)
inactive: [2] -0.124 | [3] 0.028 | [4] 0.064 | [6] 0.23 | [7] 0.068 | [8] 0.001 | [10] 0.179

MYOF (UniProt Q9NZM1)
inactive: [2] -0.19

NA (UniProt B2RBV5)
inactive: [1] 0.06 | [3] -0.055 | [5] 0.029 | [6] 0.045 | [7] 0.12 | [8] 0.056 | [9] -0.001 | [10] -0.014

NCOA5 (UniProt Q9HCD5)
inactive: [1] -0.101 | [5] -0.011 | [6] 0.023

NDST2 (UniProt P52849)
inactive: [1] -0.064 | [2] 0.06 | [3] 0.105 | [4] 0.066 | [5] 0.136 | [8] 0.03 | [9] -0.024

Retrieved one by one from the list above, 3 records:
NAP1L1 (UniProt B7Z9C2)
inactive: [2] -0.124 | [3] 0.028 | [4] 0.064 | [6] 0.23 | [7] 0.068 | [8] 0.001 | [10] 0.179

NCOA5 (UniProt Q9HCD5)
inactive: [1] -0.101 | [5] -0.011 | [6] 0.023

NDUFA7 (UniProt M0R0N0)
inactive: [1] -0.307 | [4] -0.344 | [5] -0.063

(cont.)

NBDY, A0A0U1RRE5
inactive: [2] 0.032 | [3] 0.085 | [6] -0.087 | [8] -0.024 | [9] -0.173

NCOA3 (UniProt Q9Y6Q9)
inactive: [1] -0.072 | [4] -0.008 | [5] 0.129 | [6] -0.035 | [7] -0.249 | [9] 0.208 | [10] 0.224 | [11] 0.258

NAGPA (UniProt Q9UK23)
inactive: [1] 0.051 | [2] -0.045 | [3] 0.03 | [5] 0.04 | [6] -0.122 | [7] 0.074 | [8] -0.237 | [9] 0.043 | [10] -0.023

NCCRP1 (UniProt Q6ZVX7)
inactive: [2] 0.279 | [3] 0.132 | [4] -0.346 | [7] -0.009 | [8] 0.01 | [9] -0.58 | [10] 1.03 | [11] -0.072

NATD1 (UniProt Q8N6N6)
inactive: [2] -0.119 | [3] -0.045 | [8] 0.173
